The other results are listed elsewhere or left out.

Sequences of proteins named here, by UniProt entry; tags and fusion partners are left off.
UniProt Q0JBA9, entry or part of it: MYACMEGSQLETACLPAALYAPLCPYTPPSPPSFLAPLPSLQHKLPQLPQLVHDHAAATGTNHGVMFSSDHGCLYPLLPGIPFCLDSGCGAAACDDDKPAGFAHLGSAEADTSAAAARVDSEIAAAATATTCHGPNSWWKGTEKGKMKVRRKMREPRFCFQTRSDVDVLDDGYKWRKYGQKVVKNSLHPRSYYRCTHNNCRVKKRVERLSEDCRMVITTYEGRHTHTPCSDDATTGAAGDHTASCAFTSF

In this test the target is OsWRKY34 (Oryza sativa, UniProt Q0JBA9 1-250). Description: protein-binding microarray (RPBM); PBS, 2% BSA, 51.3 ng/ul salmon testes DNA, 50 uM zinc acetate, 200 nM TF, 25 C, 1 h; high values mean tight binding. The note with it: protein: recombinant; tags: N-terminal polyhistidine and DsRed monomer fusion (pET32a); label: CyDye5-dUTP incorporated in the synthesized complementary strand; 3' TTTTT single-stranded linker to array surface; dsDNA, one strand shown. The method in brief:
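An Axon 4000B scanner gave the binding signal as per-feature fluorescence intensity in arbitrary units. This followed washing of a custom Agilent array that had been incubated for 1 h at 25 °C with 200 nM protein in PBS, 2% BSA, salmon testes DNA and 50 µM zinc acetate. The proteins were transcription factors fused at the N-terminus to polyhistidine and DsRed, expressed in E. coli BL21-CodonPlus and purified on Ni–NTA.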
“TATTTGCCTATCCCTATCAATTATCATGTTTAAATTTTCACGGAGTCACCTAGTGCAG”: the binding signal is 9230 fluorescence intensity (a.u.).

For the sequence “CCGATCAACGTTTAATGTGACACCTATAAATTTCTCTTTTCGGAGTCACCTAGTGCAG”, the binding signal is 9060 fluorescence intensity (a.u.). Take “CCTCCGGCCTCCACCCGCCGTCGTCCGTCGCCGTTGCGCGCGGAGTCACCTAGTGCAG”: the binding signal is 10000 fluorescence intensity (a.u.).

For “CCCCTGACCTTTCTCACCTGTTGAATGTTATTATTTGGTACGGAGTCACCTAGTGCAG”, the binding signal was 8120 fluorescence intensity (a.u.). For “CTCTTTGTTTTGGTCCTCATGTTTTTAAAATTTATGTGGACGGAGTCACCTAGTGCAG” the value was 9990 fluorescence intensity (a.u.); for “CTGGAGGGAGGGAGCACGGGAGTGGGAGGGGAGGCGCCGACGGAGTCACCTAGTGCAG”, 11300 fluorescence intensity (a.u.); for “ATTTTGATTTGCTCTCGGCTCTCTCGTTCGTGTGCACATCCGGAGTCACCTAGTGCAG”, 8110 fluorescence intensity (a.u.). For “ATCGAACGTTTGACCGGATGTCTGAAGGGGTTTTTGGACACGGAGTCACCTAGTGCAG” the value was 10000 fluorescence intensity (a.u.); for “CCAACGTGTCCACTCACGGCTTACACGTGCCACGCCCATCCGGAGTCACCTAGTGCAG”, 8580 fluorescence intensity (a.u.); for “AAATAACCTAAGTTCACTATTGAAATGGCCTATTTTCTTACGGAGTCACCTAGTGCAG”, 8590 fluorescence intensity (a.u.). For “CGTTGACTTTTTATCAAATGTTTGACCGTTCGTCTTATTTCGGAGTCACCTAGTGCAG” the value was 28900 fluorescence intensity (a.u.); for “CATCGATGAACATTCAACAAATCTTCGGGGTGGGTTACACCGGAGTCACCTAGTGCAG”, 8900 fluorescence intensity (a.u.); for “AATTCCTGGACCTTAACTCACACGCAATTCCATCCTCCCTCGGAGTCACCTAGTGCAG”, 8620 fluorescence intensity (a.u.).

Take “CCGGACCAGCCCAACCATTTCGTCGAGCACCTCACGCACGCGGAGTCACCTAGTGCAG”: the binding signal was 9520 fluorescence intensity (a.u.). In the case of “TTGGGGAAGGTGGTGGCGCACATTGGATGGGGCAGGAGGGCGGAGTCACCTAGTGCAG”, the binding signal is 9060 fluorescence intensity (a.u.). For “GCAACCTCATACTTGAGCCAACGCAACTGTCAAATCTAAACGGAGTCACCTAGTGCAG” the value was 8160 fluorescence intensity (a.u.); for “TTTTTTAAACATGTTTGACCGTTCGTCTTATTCAAAAACTCGGAGTCACCTAGTGCAG”, 9000 fluorescence intensity (a.u.); for “TTATTATTCTAAAAATATGTGCATTTATATTTTTACATATCGGAGTCACCTAGTGCAG”, 8520 fluorescence intensity (a.u.). As for “AACCTCACCTCTGACGGTTTCTACTTCCGGCCCGTCACATCGGAGTCACCTAGTGCAG”, the binding signal was 9830 fluorescence intensity (a.u.).

On to “CTCGCGATTTCCATGCAAACTGTGTAATTAGTTTTTTTATCGGAGTCACCTAGTGCAG”, for which the binding signal is 8720 fluorescence intensity (a.u.). For “GGGAGGGAGAGGAGGCGGAGGAGGAGGAGGTGGAGGAGTACGGAGTCACCTAGTGCAG” the value was 8610 fluorescence intensity (a.u.). For “GGTGGTGTTGTTGGTGGTGCAGTTCTTGGAGTCACATGGTCGGAGTCACCTAGTGCAG” the value was 10300 fluorescence intensity (a.u.).

As to “GCCTCGTCTTTTTCTTAGGTTTATGCTTATCAGCTAAAATCGGAGTCACCTAGTGCAG”, the binding signal was 8620 fluorescence intensity (a.u.). For “TGCAGCGTTGGTCAGGGGCCTCTCCGTCTATCTGTTCCTACGGAGTCACCTAGTGCAG” the value was 10900 fluorescence intensity (a.u.); for “ACTGTGTTTCTTTGGTTGTTCCTCTCATTTACGAATAGAACGGAGTCACCTAGTGCAG”, 10300 fluorescence intensity (a.u.). For “CTTTCGGTGTCTCCTTCAATGTTTGGTGGTACTTTCTGTTCGGAGTCACCTAGTGCAG” the value was 8950 fluorescence intensity (a.u.); for “ATGATGAACACGATCCCAGTGCTTAATGCGCTTTTTTTTTCGGAGTCACCTAGTGCAG”, 8620 fluorescence intensity (a.u.); for “TACTCCAAAGCACCGTTAATACTACTACTTCTCTCACGAACGGAGTCACCTAGTGCAG”, 9000 fluorescence intensity (a.u.). For “CCACACACGTAGCTTCTCGAATTCTCCGGCGACTCTCCTACGGAGTCACCTAGTGCAG” the value was 10500 fluorescence intensity (a.u.); for “ACAGGTTTGTATGTACTAATATTTTTCATGCCTACATTTCCGGAGTCACCTAGTGCAG”, 8180 fluorescence intensity (a.u.). For “GCCACCGTCCTGCTGCTTCCGCCGCATCCTCTCCCCGCCGCGGAGTCACCTAGTGCAG”, the binding signal is 11400 fluorescence intensity (a.u.).

Take “CACCGCCACCGCCACCGCCACCGCCCGCACTCTCCGCTCGCGGAGTCACCTAGTGCAG”: the binding signal was 8190 fluorescence intensity (a.u.). As to “TATCGTATTGTGCTTTTGATTCGCGTTCTAATTACGTGCACGGAGTCACCTAGTGCAG”, the binding signal is 8940 fluorescence intensity (a.u.).

Take “ACTATTTGGATATCCCATTCCAACGCCATTGCCCTCTGTTCGGAGTCACCTAGTGCAG”: the binding signal was 8280 fluorescence intensity (a.u.).

With “TCTTTTCGGTAGCTACTTTCTACATCTCTCTTATTTGGATCGGAGTCACCTAGTGCAG”, the binding signal is 8480 fluorescence intensity (a.u.). For “GGTTAGAGATACATACATATTATACCTGATTCACCTCACTCGGAGTCACCTAGTGCAG” the value was 8060 fluorescence intensity (a.u.); for “CGCCTCCACGGCGCCCACGCTCATCGCCACCATCCACGACCGGAGTCACCTAGTGCAG”, 8610 fluorescence intensity (a.u.).

Consider “TAGTTATTTATAGAGTTAGGGTGTGTATGTTGTACTTATACGGAGTCACCTAGTGCAG”, for which the binding signal is 8430 fluorescence intensity (a.u.). For “AGCCCAAACCCCGCAGCCGACGCGCTTCCCCGTTGACGCCCGGAGTCACCTAGTGCAG” the value was 8480 fluorescence intensity (a.u.). For the sequence “TTCGACTCTCGGTACCAGTTAGCATGCGAGTTTTTTTTGACGGAGTCACCTAGTGCAG”, the binding signal is 11800 fluorescence intensity (a.u.).

As for “TTACCGTCCATCTGCGTCTGTCCTGATCCATATCCTCCATCGGAGTCACCTAGTGCAG”, the binding signal is 8550 fluorescence intensity (a.u.).

For the sequence “CTACTGTCCAGTGACTGACCGAGCCCTGCACACCCTACGTCGGAGTCACCTAGTGCAG”, the binding signal is 9740 fluorescence intensity (a.u.).

The values are drawn from publication PMC7819943, “Rice protein-binding microarrays: a tool to detect cis-acting elements near promoter regions in rice”.
